{"source": "patent US7705118B2", "about": "“Methods for preparing internally constrained peptides and peptidomimetics” (New York University, priority 2004, dated 2010)", "assay": "Circular dichroism of Bak BH3 peptides in 20% TFE/PBS", "format": "physicochemical", "details": "20% TFE in PBS, 50 μM, 25° C., Yang's method", "description": "The α-helical conformation of constrained peptide 10a was determined by circular dichroism spectroscopy. […] The HBS α-helix 10a is roughly 46% helical as measured by Yang's method (Chen et al., Biochemistry, 11:4120-4131 (1972), which is hereby incorporated by reference in its entirety). […]\nCD spectra were recorded on AVIV 202SF CD spectrometer equipped with a temperature controller using 1 mm length cells and a scan speed of 5 nm/min at 25° C. […] The helix content of each peptide was determined from the mean residue CD at 222 nm, [θ]222 (deg cm^2 dmol^−1) corrected for the number of amide bonds (Chen et al., Biochemistry 11:4120-4131 (1972), which is hereby incorporated by reference in its entirety). Percent helicity was calculated from ratio [θ]222/[θ]max, where [θ]max=−39500×[1−(2.57/n)]. The [θ]max for HBS α-helices is calculated to be −33155 for n=16 (number of amide bonds in the peptide).", "note": "Part of at least one peptide drawing is inferred or uncertain, most often the ends. At least one structure is not confirmed: it was looked up by name or label, or the drawing left a doubt."}
{"molecule": "CC[C@H](C)[C@H](NC(=O)[C@H](C)NC(=O)[C@H](CC(C)C)NC(=O)[C@H](CCC(N)=O)NC(=O)[C@H](CCCNC(=N)N)NC(=O)CN1CC=CCCC(=O)N[C@@H](CCC(N)=O)C(=O)N[C@@H](C(C)C)C1=O)C(=O)N[C@H](C(=O)NCC(=O)N[C@@H](CC(=O)O)C(=O)N[C@@H](CC(=O)O)C(=O)N[C@H](C(=O)N[C@@H](CC(N)=O)C(=O)N[C@@H](CCCNC(=N)N)C(N)=O)[C@@H](C)CC)[C@@H](C)CC", "note": "[peptide 10a]", "values": [{"measurement": "percent helicity", "result": "roughly 46%"}]}
